These results are taken from the supplement of paper PMC3334620.

The full ranking holds about 33,000 sequences; the median of “E-score (-0.5 to 0.5)” is about -0.016, and the highest 2% start at about 0.3. The list shows a part of the results.

The target of this assay is T1, Yer184c (UniProt P39961).
T1 sequence: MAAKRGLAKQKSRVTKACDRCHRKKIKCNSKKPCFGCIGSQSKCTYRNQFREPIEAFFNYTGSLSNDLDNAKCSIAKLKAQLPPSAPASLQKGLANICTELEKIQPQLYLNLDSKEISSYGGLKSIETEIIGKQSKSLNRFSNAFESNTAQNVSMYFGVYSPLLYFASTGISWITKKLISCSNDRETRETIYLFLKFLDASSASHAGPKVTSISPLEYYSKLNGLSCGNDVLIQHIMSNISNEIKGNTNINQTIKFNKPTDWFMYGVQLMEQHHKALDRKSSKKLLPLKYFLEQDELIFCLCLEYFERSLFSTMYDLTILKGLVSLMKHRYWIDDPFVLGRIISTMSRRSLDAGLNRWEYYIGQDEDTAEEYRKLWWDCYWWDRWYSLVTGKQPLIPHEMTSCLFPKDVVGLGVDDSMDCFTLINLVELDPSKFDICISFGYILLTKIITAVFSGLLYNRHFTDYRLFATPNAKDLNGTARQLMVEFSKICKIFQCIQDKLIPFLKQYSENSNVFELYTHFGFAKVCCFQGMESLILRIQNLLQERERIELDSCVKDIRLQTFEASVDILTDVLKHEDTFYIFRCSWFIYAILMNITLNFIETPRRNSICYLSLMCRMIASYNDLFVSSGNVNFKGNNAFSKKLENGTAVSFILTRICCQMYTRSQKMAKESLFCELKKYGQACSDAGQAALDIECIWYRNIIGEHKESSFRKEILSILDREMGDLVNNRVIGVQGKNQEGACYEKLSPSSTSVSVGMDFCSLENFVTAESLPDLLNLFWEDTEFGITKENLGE
Put plainly: PBM E-score (8-mer binding enrichment) (E-score (-0.5 to 0.5)); higher = stronger / more preferred TF binding. The settings on record: protein concentration: 100 nM; construct: GST-full length. A digest of the protocol: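 Detection of bound protein used fluorescent anti-GST, with scans normalised by masliner. The proteins were GST-tagged yeast transcription factors applied at about 100-200 nM to universal all-10-mer Agilent arrays made double-stranded by primer extension. Each ungapped eight-base word, pooled with its reverse complement, was scored with an E-score from the Universal PBM Analysis Suite.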
For the sequence CGCCAACA, the “PBM E-score” value is 0.0135.

For CTTGTAAA, the “PBM E-score” value is 0.0315.

Take GCAGGGAA: the “PBM E-score” value worked out at 0.14.

With AATCGGAA, the “PBM E-score” value stood at 0.374.

As to AGCTTCCT, the “PBM E-score” value is 0.0609.

Consider AAAACCGT, for which the “PBM E-score” value was 0.118.

For GGGGAGGA, the “PBM E-score” value was -0.259.

Take ATGATCAG: the “PBM E-score” value came to 0.0525.

For the sequence TCGCATCA, the “PBM E-score” value was 0.146.

With GAGTATCA, the “PBM E-score” value was -0.0416.

With CAGTAGTA, the “PBM E-score” value amounted to 0.0825.

ACCACCAA: the “PBM E-score” value was -0.125.

Consider ATGTGAAA, for which the “PBM E-score” value worked out at 0.118.

Regarding GCTGTAGA, the “PBM E-score” value amounted to 0.101.

Take CTCAGTGA: the “PBM E-score” value was -0.172.

For the sequence AAGTGCTC, the “PBM E-score” value was -0.229.

ACAATTCT: the “PBM E-score” value came to 0.0476.

Regarding CTAACAGC, the “PBM E-score” value is -0.00761.

Turning to TCGTCCCA, the “PBM E-score” value is -0.0806.

With ATAGCCGA, the “PBM E-score” value came out at 0.299.

For AACGCAGT, the “PBM E-score” value was -0.081.

For ATTTGTAA, the “PBM E-score” value came to 0.14.

Take CAGCCCTA: the “PBM E-score” value was -0.0337.

As for AATATATA, the “PBM E-score” value is 0.267.

Regarding GGGTTCAC, the “PBM E-score” value is 0.00273.

Turning to CATAGACC, the “PBM E-score” value is -0.0691.

ATGCTGTA: the “PBM E-score” value stood at 0.074.

Turning to GAGTATCC, the “PBM E-score” value was determined as 0.0881.

Turning to GGGATCTA, the “PBM E-score” value was -0.0536.

Regarding TATGTTGA, the “PBM E-score” value was determined as 0.0275.

CCAGGACA: the “PBM E-score” value was -0.169.

As for GACGTCCA, the “PBM E-score” value is -0.0411.

As to GATGGTCC, the “PBM E-score” value was -0.144.

For ACGCAATA, the “PBM E-score” value was found to be 0.135.

Consider GCTCGAAC, for which the “PBM E-score” value was determined as 0.034.

As for AGTCAAGG, the “PBM E-score” value was -0.159.

Take ACACTTAC: the “PBM E-score” value is 0.0858.

In the case of GGCTCCAC, the “PBM E-score” value was -0.096.

As for GCGAGGAA, the “PBM E-score” value was 0.183.

Turning to CTAGAACC, the “PBM E-score” value is -0.00303.

With ATCCGCAT, the “PBM E-score” value was determined as 0.111.

On to GGGCCGAA, for which the “PBM E-score” value turned out to be 0.243.

As for AAACTTGT, the “PBM E-score” value was determined as 0.198.

For CGATCTCA, the “PBM E-score” value is -0.0159.

With CGGTTAGA, the “PBM E-score” value was found to be 0.0556.

Take CCCCGAGG: the “PBM E-score” value is 0.0698.

As to AACGCCCG, the “PBM E-score” value is -0.015.

As for CATGAAGC, the “PBM E-score” value was found to be 0.101.

Turning to ACATTGCA, the “PBM E-score” value is -0.152.

For ACGTTCTG, the “PBM E-score” value was -0.0311.

Take AGAGGTTG: the “PBM E-score” value is -0.19.

As for GTACCATA, the “PBM E-score” value is -0.0946.

On to AAATAGAC, for which the “PBM E-score” value is -0.00964.

For the sequence CGTACGTC, the “PBM E-score” value is -0.245.

For the sequence AGTTCGCG, the “PBM E-score” value is 0.0747.

Turning to ATAAAGCG, the “PBM E-score” value was 0.134.

Consider CAGGGTGC, for which the “PBM E-score” value is -0.248.

As to AAGCAACA, the “PBM E-score” value was -0.0711.

CCGTCCGC: the “PBM E-score” value was -0.107.

As to GATGAGAA, the “PBM E-score” value worked out at 0.00569.

On to AACAGAGG, for which the “PBM E-score” value was -0.169.

As for ACTCACAC, the “PBM E-score” value is -0.0217.

Consider GTCCAAAC, for which the “PBM E-score” value is -0.0319.

Consider ATAAATCC, for which the “PBM E-score” value stood at 0.104.

On to AACAAAGT, for which the “PBM E-score” value stood at 0.148.

Take CCCGATTC: the “PBM E-score” value was 0.109.

Take ATTTGAAC: the “PBM E-score” value was found to be 0.209.

As for ACACTGAC, the “PBM E-score” value was -0.0345.

For CCCGCCAC, the “PBM E-score” value was -0.0706.

TACGCCAA: the “PBM E-score” value was -0.142.

On to AAAGGGCG, for which the “PBM E-score” value is -0.113.

For the sequence CTTCGTCA, the “PBM E-score” value came out at 0.0711.

In the case of CGATACAC, the “PBM E-score” value was -0.00964.

Consider CGCCGAGA, for which the “PBM E-score” value was determined as 0.346.

With AATATATG, the “PBM E-score” value stood at 0.153.

Take AGTACTCC: the “PBM E-score” value is -0.189.

CGTCAGCA: the “PBM E-score” value came out at 0.016.

Turning to ACACGGGC, the “PBM E-score” value is 0.023.

Turning to AATTTTCT, the “PBM E-score” value worked out at 0.0125.

For the sequence AACAGTCT, the “PBM E-score” value is -0.0276.

As for GATCTAAC, the “PBM E-score” value worked out at 0.119.

Turning to CCCCTCCG, the “PBM E-score” value was -0.00064.

For AACCAATA, the “PBM E-score” value amounted to 0.136.

Consider AAGTGTTG, for which the “PBM E-score” value turned out to be 0.162.

On to TACAGTCA, for which the “PBM E-score” value was -0.0508.

Regarding AACGAACC, the “PBM E-score” value was determined as 0.0449.
